Screen size: about 390,000 compounds; about 910 (0.23%) were called active. The inconclusive results got no clear call from the source; some entries with a clear call stand among them for comparison. The call rests on the fitted dose curve; in most records, active means well fitted inhibition curve with a large enough effect; inconclusive means small, poorly fitted or top-dose-only effect; inactive means no such curve, though single readings can be large or run the other way. A potency beside an inconclusive call is a rough fit, not a confirmed value.
molecular target: Ubiquitin carboxyl-terminal hydrolase 1 (Homo sapiens) (UniProt O94782); test: Inhibitors of USP1/UAF1: Primary Screen; details: recombinant USP1/UAF1, Ub-Rhodamine cleavage fluorescence; activity change, negative = inhibition: at 57.1 µM (top of the series); further: nearly all actives have a fitted effect of over 60% in size
Method in brief: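 High-throughput fluorogenic screen: 1nM USP1/UAF1 complex, Ub-Rho substrate 150nM final, 50mM HEPES pH 7.8 with 0.5mM EDTA, 0.1 mg/ml BSA, 1mM TCEP and 0.01% Tween-20.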
On the % scale 0 is the no-effect control and ±100 the full control effect; potency means the concentration at half of the fitted maximal effect.

Sequences of proteins named here, by UniProt entry; tags and fusion partners are left off. A change or cut given only in a name is not applied to a line headed by its entry.
UniProt O94782: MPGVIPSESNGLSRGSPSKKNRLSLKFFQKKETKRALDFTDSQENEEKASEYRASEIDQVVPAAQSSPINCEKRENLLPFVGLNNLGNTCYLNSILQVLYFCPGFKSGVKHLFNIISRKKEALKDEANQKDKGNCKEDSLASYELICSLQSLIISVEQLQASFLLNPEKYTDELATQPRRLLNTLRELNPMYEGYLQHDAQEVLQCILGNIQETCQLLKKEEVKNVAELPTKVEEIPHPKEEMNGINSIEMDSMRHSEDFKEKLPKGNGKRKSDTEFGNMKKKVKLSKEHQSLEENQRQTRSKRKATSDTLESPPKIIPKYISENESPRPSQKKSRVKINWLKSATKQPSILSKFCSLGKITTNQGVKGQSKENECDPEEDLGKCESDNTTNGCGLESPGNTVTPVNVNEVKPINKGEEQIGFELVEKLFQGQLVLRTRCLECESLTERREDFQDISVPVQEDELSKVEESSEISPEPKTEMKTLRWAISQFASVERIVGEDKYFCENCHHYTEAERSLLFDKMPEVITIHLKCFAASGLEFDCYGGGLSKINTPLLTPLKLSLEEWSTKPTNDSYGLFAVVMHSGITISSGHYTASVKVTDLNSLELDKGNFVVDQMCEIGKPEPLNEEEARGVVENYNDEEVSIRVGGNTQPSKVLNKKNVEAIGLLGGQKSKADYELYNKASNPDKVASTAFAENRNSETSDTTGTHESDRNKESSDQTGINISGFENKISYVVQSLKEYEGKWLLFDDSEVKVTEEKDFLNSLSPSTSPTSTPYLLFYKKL

SMILES | Potency | activity change, negative = inhibition
Cn1c2ccccc2c2c(C(=O)N3CCN(c4cccc(C(F)(F)F)c4)CC3)cn(C3CCCCC3)c(=O)c21 | inconclusive: 56.2 µM [inhibitor, partial curve, poor fit] | 
COc1ccccc1OCC(=O)Sc1ccc(C)cc1 |  | inactive: -7.91%
C=CCn1c(-c2ccccc2)nc(=S)c2c1CCCC2 | inconclusive: 0.251 µM [inhibitor, full curve, poor fit] | 
CC(C)C(C(=O)NCc1ccco1)N(Cc1ccco1)C(=O)CNS(=O)(=O)c1ccc(F)cc1 (configuration not stated) | inconclusive: 5.01 µM [inhibitor, partial curve, poor fit] | 
CC(C)NC(=O)N(C)C[C@H]1Oc2c(NS(=O)(=O)c3ccccc3)cccc2C(=O)N([C@H](C)CO)C[C@@H]1C | inconclusive: 5.62 µM [inhibitor, partial curve] | 
C/C(=N/NC(=O)CNC(=O)c1ccccc1F)c1ccc2c(c1)CCCC2 |  | inactive: 3.66%
O=C(Cn1ncc2c3ccccc3n(Cc3cccc(Cl)c3)c2c1=O)N1CCCCC1 | inconclusive: 28.2 µM [inhibitor, partial curve] | 
CCCCc1nn2c(C)c(-c3ccc(OCC)cc3)nc2s1 | inconclusive: 44.7 µM [inhibitor, partial curve, poor fit] | 
COc1ccc(S(=O)(=O)Nc2cccc3c2O[C@H](CN(C)C(=O)Nc2c(C)noc2C)[C@@H](C)CN([C@H](C)CO)C3=O)cc1 | inconclusive: 6.31 µM [inhibitor, partial curve] | 
CC(C)Cc1c(O)nc(SCC(=O)N2CCCCCC2)[nH]c1=O | inconclusive: 0.398 µM [inhibitor, full curve, poor fit] | 
Cc1cc(OCC(=O)NNC(=O)CCc2ccccc2)ccc1Br | inconclusive: 39.8 µM [inhibitor, partial curve, poor fit] | 
CC(=O)c1cc2c(cc1NC(=O)CSc1nc3ccccc3o1)OCO2 |  | inactive: -14.7%
Cc1cc(C)cc(NC(=O)N2CCN(C)c3ncccc32)c1 | inconclusive: 50.1 µM [inhibitor, partial curve, poor fit] | 
COc1ccc(NC(=S)Nc2cccc(Cl)c2)cc1OC | inconclusive: 10 µM [inhibitor, partial curve, poor fit] | 
COc1ccccc1N(CC(O)CN(c1ccccc1)S(C)(=O)=O)S(=O)(=O)c1ccccc1 (configuration not stated) |  | inactive: -4.19%
CCOc1ccc(OCC)c(NC(=O)CN2CCN(c3ccc(C)cc3C)CC2)c1 |  | inactive: -6.57%
COC(=O)c1c(-c2ccccc2)noc1-c1ccccc1 | inconclusive: 10 µM [inhibitor, partial curve, poor fit] | 
CCCN1CCN(CC2=C(C(=O)OCC)C(c3cccc(OC)c3OC)NC(=O)N2)CC1 (configuration not stated) | inconclusive: 2.82 µM [inhibitor, full curve] | 
COc1ccc(N(CC(=O)N/N=C(\C)c2ccc(OC)c(OC)c2)S(=O)(=O)c2ccccc2)cc1 |  | inactive: -21.8%
CCn1cc(Cl)c(C(=O)N2N=C3/C(=C/c4cccs4)CCCC3C2c2cccs2)n1 (configuration not stated) | inconclusive: 31.6 µM [inhibitor, partial curve] | 
O=C(CCc1ccccc1)NCC1(c2ccccc2)CCCC1 |  | inactive: -8.55%
COc1cc(/C=C2\C(=O)NN(c3ccccc3)C2=O)cc([N+](=O)[O-])c1O |  | inactive: -21%
Cc1cc2oc(C(=O)N(Cc3ccc(N(C)C)cc3)CC3CCCO3)c(C)c2cc1C (configuration not stated) | inconclusive: 1.58 µM [inhibitor, full curve, poor fit] | 

SMILES | Potency | activity change, negative = inhibition
Cc1sc(NC(=O)c2ccco2)c(CN2CCN(c3ccccn3)CC2)c1C | inconclusive: 50.1 µM [inhibitor, partial curve, poor fit] | 
c1ccc(-c2noc(-c3ccncc3)n2)nc1 |  | inactive: -1.91%
COc1ccc(CCNC(=O)Cn2c(=O)n(-c3ccc(C)c(F)c3)c(=O)c3sccc32)cc1OC |  | inactive: -18%
Cc1cc(=O)oc(C)c1C(=O)O |  | inactive: 6.27%
Cc1ccc(N2C(=O)CC(Sc3ncn[nH]3)C2=O)cc1C (configuration not stated) |  | inactive: -22%
O=C(CCCC(=O)N1CCN(c2cccc(Cl)c2)CC1)c1ccccc1 | inconclusive: 44.7 µM [inhibitor, partial curve] | 
Cc1c(OC(C)C(=O)NCC2CCC(C(=O)O)CC2)ccc2c3c(c(=O)oc12)CCCC3 (configuration not stated) |  | inactive: -20.5%
O=C(Nc1nc(-c2ccccn2)cs1)c1ccc(F)c(S(=O)(=O)N2CCOCC2)c1 | inconclusive: 31.6 µM [inhibitor, partial curve] | 
O=C(COC(=O)c1cccc(S(=O)(=O)N2CCc3ccccc32)c1)NCc1ccco1 | inconclusive: 50.1 µM [inhibitor, partial curve, poor fit] | 
CCCCn1c(=N)n(CC(=O)C(C)(C)C)c2ccccc21 | inconclusive: 44.7 µM [inhibitor, partial curve, poor fit] | 
O=C(COc1ccccc1)NCCc1csc(-c2ccc(F)cc2)n1 | inconclusive: 44.7 µM [inhibitor, partial curve, poor fit] | 
COc1ccc(C(CNC(=O)C(C)Oc2ccc(Br)cc2)N2CCOCC2)cc1 (configuration not stated) | inconclusive: 6.31 µM [inhibitor, full curve] | 
COc1ccc(S(=O)(=O)n2cnc3ccccc32)c(C)c1 | inconclusive: 50.1 µM [inhibitor, partial curve, poor fit] | 
Cc1ccc2cc(CN(CCc3ccccc3)C(=S)NCCCN(C)C)c(=O)[nH]c2c1 |  | inactive: -20%
O=C(CSc1nc(Nc2ccccc2)nc(N2CCOCC2)n1)N1CCc2ccccc21 |  | inactive: -15.6%
COc1ccccc1CNS(=O)(=O)c1cc(-c2cc(C)no2)ccc1C | inconclusive: 0.282 µM [inhibitor, full curve, poor fit] | 
Cc1ccc(NC(=O)Cn2c(=O)n(CCc3ccccc3)c(=O)c3sc4ccccc4c32)cc1C |  | inactive: -6.8%
CCOc1ccc(OCC(=O)NCCS(=O)(=O)N2CCN(c3ccc(OC)cc3)CC2)cc1 | inconclusive: 35.5 µM [inhibitor, partial curve, poor fit] | 
COC(=O)CN1C(=O)N/C(=C/c2ccc(C)o2)C1=O |  | inactive: -19.8%
FC(F)(F)c1cc(-c2ccco2)nc(NCc2ccccc2)n1 | inconclusive: 0.631 µM [inhibitor, full curve, poor fit] | 
COc1ccc2nc(NS(=O)(=O)c3ccc(NC(C)=O)cc3)sc2c1 | inconclusive: 3.16 µM [inhibitor, full curve, poor fit] | 
COc1ccc2c(Cl)c(C(=O)N/N=C3\CCCC(=O)C3)sc2c1 | active: 15.8 µM | 
COc1ccc(Cl)cc1NC(=O)c1c(NCc2cccs2)sc2c1CCC(C)C2 (configuration not stated) |  | inactive: -10.7%

At a glance, some entries already given.
SMILES | Potency | activity change, negative = inhibition
CC(C)C(C(=O)NCc1ccco1)N(Cc1ccco1)C(=O)CNS(=O)(=O)c1ccc(F)cc1 (configuration not stated) | inconclusive: 5.01 µM [inhibitor, partial curve, poor fit] | 
CC(C)NC(=O)N(C)C[C@H]1Oc2c(NS(=O)(=O)c3ccccc3)cccc2C(=O)N([C@H](C)CO)C[C@@H]1C | inconclusive: 5.62 µM [inhibitor, partial curve] | 
C/C(=N/NC(=O)CNC(=O)c1ccccc1F)c1ccc2c(c1)CCCC2 |  | inactive: 3.66%
O=C(Cn1ncc2c3ccccc3n(Cc3cccc(Cl)c3)c2c1=O)N1CCCCC1 | inconclusive: 28.2 µM [inhibitor, partial curve] | 
CCCCc1nn2c(C)c(-c3ccc(OCC)cc3)nc2s1 | inconclusive: 44.7 µM [inhibitor, partial curve, poor fit] | 
COc1ccc(S(=O)(=O)Nc2cccc3c2O[C@H](CN(C)C(=O)Nc2c(C)noc2C)[C@@H](C)CN([C@H](C)CO)C3=O)cc1 | inconclusive: 6.31 µM [inhibitor, partial curve] | 

Remaining list, next part.

SMILES | Potency | activity change, negative = inhibition
Cc1nc2ccc(NC(=O)c3ccc(Cl)c(S(=O)(=O)N(C)c4ccccc4)c3)cc2s1 | inconclusive: 25.1 µM [inhibitor, single point] | 
CCOc1nc(NC(=O)NS(=O)(=O)c2ccccc2F)nc(-c2ccccc2)n1 | inconclusive: 5.01 µM [inhibitor, full curve, poor fit] | 
O=C(COC(=O)CC1CCCC1)Nc1cccc(F)c1 |  | inactive: -1.67%
Cc1ccc(CNC(=O)C2CCN(S(=O)(=O)c3c(C)noc3/C=C/c3ccccc3F)CC2)o1 | inconclusive: 8.91 µM [inhibitor, single point] | 
Cc1ccc(C)c(NC(=O)C(NS(=O)(=O)c2ccc3c(c2)CCC(=O)N3)c2ccccc2)c1 (configuration not stated) | inconclusive: 282 µM [inhibitor, partial curve, poor fit] | 
COc1ccccc1OC(C)C(=O)N1CCN(CCc2ccccn2)CC1 (configuration not stated) | inconclusive: 2 µM [inhibitor, partial curve] | 
O=c1cc(N2CCN(c3ccc(F)cc3)CC2)[nH]c(=O)n1-c1cccc(Br)c1 |  | inactive: -21.2%
COc1ccc2c(=O)c(-c3ccc(C)cc3)c(-c3ccccc3)oc2c1 | inconclusive: 31.6 µM [inhibitor, partial curve] | 
CCOc1cc(/C=N/Nc2ccc(S(=O)(=O)Nc3ccccc3C(=O)O)cc2[N+](=O)[O-])cc(Cl)c1O | inconclusive: 39.8 µM [inhibitor, partial curve, poor fit] | 
Cc1cc2ccc(C)c(C)c2nc1SCC(=O)c1cccs1 | inconclusive: 31.6 µM [inhibitor, partial curve, poor fit] | 
CCOC(=O)N1CCN(c2nc(C(F)(F)F)nc3c(C)cc(C)cc23)CC1 |  | inactive: -16.2%
CN1C(=O)/C(=C/c2ccc(O)c([N+](=O)[O-])c2)NC1=S |  | inactive: -31%
CC(=O)Nc1nonc1-c1nnc(SCc2cccc(Br)c2)n1C | inconclusive: 44.7 µM [inhibitor, single point] | 
CCCN(CCC)CCCNC(=O)c1nn(C)c2c1CS(=O)(=O)c1ccccc1-2 |  | inactive: -12.5%
CC(C)c1ccc(-c2noc(SCC(=O)N3CCCCC3)n2)cc1 |  | inactive: -14.3%
C(#Cc1ccccc1)C[N+]1(CC#Cc2ccccc2)CCCCC1 | inconclusive: 8.91 µM [inhibitor, full curve, poor fit] | 
COc1ccc(S(=O)(=O)Nc2cc(SCC(=O)O)c(O)c3ccccc23)cc1 | active: 31.6 µM | 
CCOc1cc(C2CC(=O)Nc3c2c(C)nn3-c2nc(C)cc(C)n2)ccc1O (configuration not stated) | inconclusive: 44.7 µM [inhibitor, partial curve, poor fit] | 
COc1ccc2c(c1)Cc1sc(NC(=O)c3cccc(Cl)c3)nc1-2 | inconclusive: 25.1 µM [inhibitor, partial curve, poor fit] | 
Oc1nc(Nc2ccccc2)sc1/C=C1\C=Nc2ccccc21 |  | inactive: -16.4%
CCc1ccc(CNC(=O)c2ccc(CS(=O)(=O)Cc3ccccc3C)o2)cc1 | inconclusive: 1 µM [inhibitor, full curve] | 

— PubChem BioAssay AID743255 (National Center for Advancing Translational Sciences (NCATS), 2014)
